Measurements reported in PubChem BioAssay AID1259308 (NCATS, 2017)

Assay: 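Knock-downs that increase output of a recombinant reporter protein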 (primary screen)
Cell system: human HEK293 embryonic kidney cells stably expressing firefly luciferase (HEK-CMV-Luc2-Hygro)
Reagents: single siRNA against human genes, 0.8 pmol siRNA per well
Time to read-out: 72 h
Read-out: 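Reporter luminescence and viable-cell signal on separate replicate plates, given as percent of non-targeting control and median/MAD z-scores, plus per-cell luciferase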
Scale: total luciferase, z-score: higher = more reporter protein produced
Hit rule: 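Active when the median/MAD z-score for overall luciferase is greater than 3; a gene was taken forward for validation with new siRNAs if at least two of its three siRNAs passed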
Calls: active = raised luciferase; inactive = no rise
Here is a random part of about 59,000 deposited reagents. About 1,510 of them (2.6%) count as active. 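Calls use total luciferase alone and ignore viability, so some active siRNAs may act by altering cell number.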 The numbers tell different reagents against one gene apart. Not all columns of the deposit are shown. No sequences are given here.

ATP13A5 #1 | total luciferase, z-score: -0.51; Call: inactive
ATP13A5 #2 | total luciferase, z-score: 0.132; Call: inactive
ATP13A5 #3 | total luciferase, z-score: 0.502; Call: inactive
MOGAT2 #1 | total luciferase, z-score: -1.58; Call: inactive
MOGAT2 #2 | total luciferase, z-score: -0.552; Call: inactive
MOGAT2 #3 | total luciferase, z-score: -0.753; Call: inactive
MAGEB18 #1 | total luciferase, z-score: -0.00742; Call: inactive
MAGEB18 #2 | total luciferase, z-score: -0.698; Call: inactive
MAGEB18 #3 | total luciferase, z-score: -1.37; Call: inactive
KRTAP5-1 #1 | total luciferase, z-score: 0.0868; Call: inactive
KRTAP5-1 #2 | total luciferase, z-score: 2.1; Call: inactive
KRTAP5-1 #3 | total luciferase, z-score: -0.408; Call: inactive
PHTF2 #1 | total luciferase, z-score: 0.155; Call: inactive
PHTF2 #2 | total luciferase, z-score: 0.314; Call: inactive
PHTF2 #3 | total luciferase, z-score: -0.379; Call: inactive
CFAP298 #1 | total luciferase, z-score: 0.695; Call: inactive
CFAP298 #2 | total luciferase, z-score: 1.74; Call: inactive
CFAP298 #3 | total luciferase, z-score: -1.29; Call: inactive
XIRP2 #1 | total luciferase, z-score: 0.241; Call: inactive
XIRP2 #2 | total luciferase, z-score: 1.25; Call: inactive
XIRP2 #3 | total luciferase, z-score: -1.58; Call: inactive

No new results follow: 2 of the entries above.
PHTF2 #2 | total luciferase, z-score: 0.314; Call: inactive
PHTF2 #3 | total luciferase, z-score: -0.379; Call: inactive
